# From PubChem BioAssay AID1671190 (National Center for Advancing Translational Sciences (NCATS), 2021)
# By UniProt entry, the sequences of proteins in these tests, tags left out. Where a name states a change or a piece, a line headed by the entry shows the natural chain unless it says otherwise.
# UniProt P18054: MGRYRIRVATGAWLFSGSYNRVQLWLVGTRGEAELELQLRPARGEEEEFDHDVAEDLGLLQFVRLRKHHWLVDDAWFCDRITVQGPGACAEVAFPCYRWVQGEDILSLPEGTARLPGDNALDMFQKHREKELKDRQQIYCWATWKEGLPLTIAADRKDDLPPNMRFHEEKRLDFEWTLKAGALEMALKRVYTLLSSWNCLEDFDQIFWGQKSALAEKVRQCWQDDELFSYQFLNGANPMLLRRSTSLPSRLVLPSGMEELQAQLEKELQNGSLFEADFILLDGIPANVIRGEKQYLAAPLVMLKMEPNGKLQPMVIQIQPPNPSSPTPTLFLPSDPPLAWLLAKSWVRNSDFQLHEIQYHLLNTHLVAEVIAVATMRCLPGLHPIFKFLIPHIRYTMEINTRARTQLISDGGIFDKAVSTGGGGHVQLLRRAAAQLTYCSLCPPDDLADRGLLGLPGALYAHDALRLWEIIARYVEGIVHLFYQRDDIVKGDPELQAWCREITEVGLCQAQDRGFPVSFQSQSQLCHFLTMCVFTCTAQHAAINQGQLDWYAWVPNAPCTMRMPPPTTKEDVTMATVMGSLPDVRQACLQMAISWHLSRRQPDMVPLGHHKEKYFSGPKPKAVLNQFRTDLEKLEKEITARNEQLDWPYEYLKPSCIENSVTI
# The whole screen tested about 580,000 compounds, of which about 6,100 (1.1%) were called active. Inconclusive results, whose numbers are uncertain, are shown with a selection of clear calls. Calls come from the whole dose curve; as a rule, active = well fitted inhibition curve with a large enough effect; inconclusive = small, poorly fitted or top-dose-only effect, or another doubt; inactive = no such curve, though single readings can be large or run the other way. Potencies of inconclusive entries are doubtful fits and often do not repeat.
# Target: Polyunsaturated fatty acid lipoxygenase ALOX12 (Homo sapiens) (UniProt P18054)
# Assay: Primary qHTS assay for inhibitors of human arachidonate 12S-lipoxygenase (ALOX12): Round 2
# Settings: purified 12hLO, xylenol orange hydroperoxide absorbance; activity change, negative = inhibition: at 108 µM (top of the series) unless noted
# Summary of the method: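 Purified human 12hLO at 150 nM in 25 mM Hepes, 0.01% Triton X-100, pH 7.0, preincubated 15 min at room temperature with compound. Reaction started with 40 uM arachidonic acid, 30 min at room temperature. Hydroperoxide measured by Fe-xylenol orange, 573/405 nm absorbance ratio.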
# % is set by controls: 0 for no effect and ±100 for the full control effect; potency is the fitted concentration of half-maximal effect.
Structure (SMILES),Potency,"activity change, negative = inhibition"
O=C1c2cnc(-c3ccsc3)nc2OCCN1c1cccc(C(F)(F)F)c1,"inconclusive: 5.01 µM [inhibitor, full curve]",
Cc1cccc(OCCCC(=O)Nc2ccc(Cl)c(S(=O)(=O)N3CCOCC3)c2)c1,"inconclusive: 126 µM [inhibitor, single point]",
CC1CCN(CCCOc2ccc(OCc3ccccc3)cc2)CC1,"inconclusive: 1.78 µM [inhibitor, full curve, poor fit]",
COC(=O)c1ccc(/C=N/N2CCN(Cc3ccccc3Cl)CC2)cc1,"inconclusive: 126 µM [inhibitor, single point]",
Cc1ccc(S(=O)(=O)NN=C(c2ccccc2)c2cccs2)cc1,,inconclusive: -31.3% [inhibitor]
Cc1[nH]c2ccccc2c1C(=O)CN1CC(C)CC(C)C1 (centres undefined),"inconclusive: 89.1 µM [inhibitor, single point]",
CC1(C)NC(=O)N(CCOCCOc2ccc3ccccc3c2Br)C1=O,"inconclusive: 22.4 µM [inhibitor, partial curve, poor fit]",
O=c1c(S(=O)(=O)c2ccc(Cl)cc2)cn(Cc2ccccc2)c2ccc(F)cc12,"inconclusive: 50.1 µM [inhibitor, partial curve, poor fit]",
COc1ccc(NC(=O)/C=C/c2ccccc2[N+](=O)[O-])c(OC)c1,,inactive: 14.2%
COc1cc(/C=C2\C(=O)NN(c3ccc(C)cc3)C2=O)cc([N+](=O)[O-])c1O,"inconclusive: 3.16 µM [inhibitor, full curve, poor fit]",
COc1ccc2c(c1)c(C(C(=O)O)N1CCN(CCC#N)CC1)cn2CCC(=O)O (centres undefined),"inconclusive: 3.98 µM [inhibitor, full curve]",
COc1ccc(OCC(=O)N(Cc2ccco2)C2CCS(=O)(=O)C2)cc1 (centres undefined),"inconclusive: 141 µM [inhibitor, single point]",
COc1cccc(S(=O)(=O)N2C[C@@H](Oc3ccccc3)C[C@@H]2C(=O)N2CCOCC2)c1,,inactive: 44.9%
Nc1nnc(SCC(=O)Nc2cccc(S(=O)(=O)N3CCCCC3)c2)s1,,inactive: -3.01%
Cc1cccc(C)c1Nc1nnc(SCC(=O)c2ccc(Br)s2)s1,,inactive: 11.6%
CCSc1nc(C2CC2)cc(-c2cccs2)c1C#N,,inactive: -8.8%
CC(NS(=O)(=O)c1cccc(Cl)c1)C(=O)N(C)C1CCN(C)CC1 (centres undefined),"inconclusive: 70.8 µM [inhibitor, partial curve, poor fit]",
C[C@@H](c1ccccc1)N1C[C@H](COCc2ccccc2)Oc2cc(N3CCC[C@H]3CO)ccc2S1(=O)=O,"inconclusive: 39.8 µM [inhibitor, partial curve]",
Cc1ccc(OCCN2CCN(c3ncnc4sc(C)c(C)c34)CC2)cc1,"inconclusive: 63.1 µM [inhibitor, partial curve, poor fit]",
C[C@@H]1COc2cccc(NC3CC3)c2S(=O)(=O)N1,"inconclusive: 31.6 µM [inhibitor, partial curve, poor fit]",

Structure (SMILES),Potency,"activity change, negative = inhibition"
Cc1nn(CC(=O)NCc2ccc(N(C)C)cc2)c(=O)c2c(C)n(-c3ccc(Cl)cc3)nc12,"inconclusive: 100 µM [inhibitor, partial curve, poor fit]",
O=C(NCc1ccc(C(=O)O)cc1)OCc1ccccc1,,inactive: 0.0547%
CCOC(=O)c1cccc(NC(=O)NCc2cccn2Cc2cccc(F)c2)c1,"inconclusive: 89.1 µM [inhibitor, partial curve, poor fit]",
CCOC(=O)C1CCC(CNC(=O)Nc2c(NC3CCCCC3)c3ccccc3oc2=O)CC1 (centres undefined),"inconclusive: 126 µM [inhibitor, single point]",
Cc1cc(C)c2cc(C#N)c(NCCNC(=O)c3ccccc3)nc2c1,"inconclusive: 89.1 µM [inhibitor, single point]",
CN1CCN(c2ncc3nc(CCc4ccccc4)c(=O)n(C4CC4)c3n2)CC1,"inconclusive: 35.5 µM [inhibitor, partial curve, poor fit]",
Cc1cc(C)c(NC(=O)CNC(=O)COC(=O)Cc2ccccc2C)c(C)c1,"inconclusive: 126 µM [inhibitor, single point]",
CC(C)C[C@H]1CN(CCCC[C@H]2CNC(=O)C(=O)N2CCC2CCCCC2)C(=O)C(=O)N1CC1CCCCC1,"inconclusive: 56.2 µM [inhibitor, partial curve, poor fit]",
O=C(Cn1nc2c(cc1=O)CCCC2)Nc1ccc(Cn2cncn2)cc1,"inconclusive: 25.1 µM [inhibitor, single point]",
Cc1ccc(CN2CCN(Cc3c(C)nn(-c4ccc(F)cc4)c3C)CC2CCO)o1 (centres undefined),,inactive: -6.51%
CCCC(=O)N1CCCN(C(C)C(=O)Nc2ccccc2Cl)CC1 (centres undefined),"inconclusive: 20 µM [inhibitor, full curve, poor fit]",
Cc1ccc(N2C(=O)N(CC(=O)Nc3ccc(F)c(F)c3)C(=O)C2C)cc1 (centres undefined),"inconclusive: 7.08 µM [inhibitor, partial curve, poor fit]",
CC(C)[C@H](NC(=O)c1ccc(Cl)cc1)C(=O)Nc1cccc(S(=O)(=O)N2CCOCC2)c1,"inconclusive: 89.1 µM [inhibitor, single point]",
Cc1ccc(-c2csc(NC(=O)c3cccc(C)c3)c2C(=O)O)cc1,"inconclusive: 79.4 µM [inhibitor, single point]",
O=C(NC[C@H]1O[C@@H](CC(=O)N2CCc3ccccc32)[C@H](O)[C@@H]1O)c1ccco1,"inconclusive: 17.8 µM [inhibitor, full curve]",
O=C(Nc1ccc(Cl)cc1)Nc1ccccn1,,inactive: 20.1%
Cc1ccc(NC(=O)c2ccc(CSc3ccc(Cl)cc3)cc2)c(C)c1,,inactive: -19.8%
C[C@H]1CN([C@@H](C)CO)C(=O)Cc2cc(NS(C)(=O)=O)ccc2O[C@@H]1CN(C)Cc1ccc(Cl)c(Cl)c1,"inconclusive: 50.1 µM [inhibitor, partial curve, poor fit]",
CS(=O)(=O)c1ccc(Cl)c(NC(=O)COC(=O)c2ccc(-n3cnnn3)cc2)c1,"inconclusive: 56.2 µM [inhibitor, partial curve, poor fit]",

# Structural class, the compounds so far with an aryl methoxy group (5)
Structure (SMILES),Potency,"activity change, negative = inhibition"
COc1ccc(NC(=O)/C=C/c2ccccc2[N+](=O)[O-])c(OC)c1,,inactive: 14.2%
COc1cc(/C=C2\C(=O)NN(c3ccc(C)cc3)C2=O)cc([N+](=O)[O-])c1O,"inconclusive: 3.16 µM [inhibitor, full curve, poor fit]",
COc1ccc2c(c1)c(C(C(=O)O)N1CCN(CCC#N)CC1)cn2CCC(=O)O (centres undefined),"inconclusive: 3.98 µM [inhibitor, full curve]",
COc1ccc(OCC(=O)N(Cc2ccco2)C2CCS(=O)(=O)C2)cc1 (centres undefined),"inconclusive: 141 µM [inhibitor, single point]",
COc1cccc(S(=O)(=O)N2C[C@@H](Oc3ccccc3)C[C@@H]2C(=O)N2CCOCC2)c1,,inactive: 44.9%
